Test results as given in publication PMC8264791.

Biological target: T1, GFP-SKD1 (SUPPRESSOR OF K(+) TRANSPORT GROWTH DEFECT 1) (A. thaliana) (UniProt Q9ZNT0)
T1 sequence: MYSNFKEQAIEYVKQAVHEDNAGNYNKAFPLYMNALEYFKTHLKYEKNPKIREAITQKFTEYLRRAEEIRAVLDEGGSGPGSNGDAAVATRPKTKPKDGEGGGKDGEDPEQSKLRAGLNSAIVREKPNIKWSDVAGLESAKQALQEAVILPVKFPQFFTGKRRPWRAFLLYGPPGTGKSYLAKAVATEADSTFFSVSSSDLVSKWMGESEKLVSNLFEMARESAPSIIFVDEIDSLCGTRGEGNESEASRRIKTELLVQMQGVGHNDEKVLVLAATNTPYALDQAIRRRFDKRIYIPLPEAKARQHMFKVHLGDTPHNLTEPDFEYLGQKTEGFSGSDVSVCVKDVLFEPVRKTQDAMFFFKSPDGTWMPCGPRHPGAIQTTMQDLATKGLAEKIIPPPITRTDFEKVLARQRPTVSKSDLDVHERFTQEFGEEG
Test: affinity purification with mass spectrometry; GFP-SKD1 immunoprecipitated with the GFP Isolation kit (Miltenyi Biotec; anti-GFP magnetic beads) from extracts of rosette leaves of 35S::GFP-SKD1 plants, heat-treated or kept at RT; on-bead digest, LC-MS/MS; 35S::YFP line as negative control; 3 replicates each

- binding: binds
B1: NUCLEAR TRANSPORT FACTOR 2FAMILY PROTEIN (protein, UniProt Q9FME2 1-460)
chain: MAQQEASPSPGAEVVGRAFVEQYYHILHQSPGLVHRFYQDSSFLTRPDVTGAVTTVTTMQAINDKILSLKYEDYTAEIETADAQESHERGVIVLVTGRLTGNDNVRKKFSQSFFLAPQDKGYFVLNDVFRFLEEKEVTAQARSVPINGTTRDVQAPIEPERVVVSHEPEVEPEPVASIEEEDLDNVAEVYDPSDKDEGVVVDVEPIEPPTQISHNEILSVPQGDAPKHSYASILKQMKSSPAPTTHVARNKPRPAPVNQKLTAPPAEPAARPEASAHENVPNSSHVDVEDDGHSIYVRNLPFDSTPTQLEEVFKNFGAIKHEGIQVRSNKQQGFCFGFVEFETSSGKQSALEASPVTIGDRQAVVEEKKTNSRGGGNNGGSRGRYFSGRGSFRNESFKGGRGGGGRGGYGRGGGEFSGRPKSSNPRNGGEGYQRVPQNGGGGRGGRGEGGRGGARGGGSS

- binding: binds
B2: UBIQUITIN-SPECIFIC PROTEASE 12 (protein, UniProt Q9FPT1 1-1116)
chain: MTMMTPPPVDQPEDEEMLVPNSDLVDGPAQPMEVTQPETAASTVENQPAEDPPTLKFTWTIPNFSRQNTRKHYSDVFVVGGYKWRILIFPKGNNVDHLSMYLDVSDAASLPYGWSRYAQFSLAVVNQIHTRYTVRKETQHQFNARESDWGFTSFMPLSELYDPSRGYLVNDTVLVEAEVAVRKVLDYWSYDSKKETGFVGLKNQGATCYMNSLLQTLYHIPYFRKAVYHMPTTENDAPTASIPLALQSLFYKLQYNDTSVATKELTKSFGWDTYDSFMQHDVQELNRVLCEKLEDKMKGTVVEGTIQQLFEGHHMNYIECINVDFKSTRKESFYDLQLDVKGCKDVYASFDKYVEVERLEGDNKYHAEGHGLQDAKKGVLFIDFPPVLQLQLKRFEYDFMRDTMVKINDRYEFPLELDLDREDGKYLSPDADRSVRNLYTLHSVLVHSGGVHGGHYYAFIRPTLSDQWYKFDDERVTKEDLKRALEEQYGGEEELPQTNPGFNNNPPFKFTKYSNAYMLVYIRESDKDKIICNVDEKDIAEHLRVRLKKEQEEKEDKRRYKAQAHLYTIIKVARDEDLKEQIGKDIYFDLVDHDKVRSFRIQKQTPFQQFKEEVAKEFGVPVQLQRFWIWAKRQNHTYRPNRPLTPQEELQPVGQIREASNKANTAELKLFLEVEHLDLRPIPPPEKSKEDILLFFKLYDPEKAVLSYAGRLMVKSSSKPMDITGKLNEMVGFAPDEEIELFEEIKFEPCVMCEHLDKKTSFRLCQIEDGDIICFQKPLVNKEIECLYPAVPSFLEYVQNRQLVRFRALEKPKEDEFVLELSKQHTYDDVVEKVAEKLGLDDPSKLRLTSHNCYSQQPKPQPIKYRGVDHLSDMLVHYNQTSDILYYEVLDIPLPELQGLKTLKVAFHHATKEEVVIHNIRLPKQSTVGDVINELKTKVELSHPDAELRLLEVFYHKIYKIFPSTERIENINDQYWTLRAEEIPEEEKNIGPNDRLILVYHFAKETGQNQQVQNFGEPFFLVIHEGETLEEIKNRIQKKLHVSDEDFAKWKFAFMSMGRPEYLQDTDVVYNRFQRRDVYGAFEQYLGLEHADTTPKRAYAANQNRHAYEKPVKIYN

- binding: binds
B3: VARICOSE (protein, UniProt Q9LTT8 1-1344)
chain: MASSPGNTNPHNTPPFDLGILFKPSSNPYPPPAASYPPPTGPFLHNQYDQQHYAPPGISAQPSPVTQQQQDVSSSSAATNLHPQRTLSYPTPPLNLQSPRSNHNPGTHILALLNNTNNGAPVANQEPSHQLPVVNHNEIARSFPGGSGPIRVPSCKLPKGRRLIGEHAVYDVDVRLQGEIQPQLEVTPITKYGSDPQLVVGRQIAVNKVYICYGLKGGNIRVLNINTALRSLFRGHSQRVTDMAFFAEDVDMLASVSLDGKVFVWKISEGSEGEDQPQITGKIVLALQILGEEDTKHPRVCWHCHKQEILVVSIGKHVLRIDTTKVGRGEVFSAEAPLQCPLDKLIDGVQIVGKHDGEVTDLSMCQWMTTRLVSSSVDGTIKIWQDRKAQPLVVLRPHDGHPVSSATFVTSPERPDHIILITGGPLNREMKIWVSAGEEGWLLPADAESWRCTQTLDLKSSTEPRAEEAFFNQVIALSEAGLLLLANAKRNALYAVHLDYGSSPVGTRMDYLSEFTVTMPILSFIGTNDPPEEPIVKVYCVQTLAIQQYTLDLCLCLPPPIENMGLEKSDSSVSREANLVEGMSEPSGLKPTDLPSVDSVPKPSIIVNRSESANKLSFPSAEATSQAIVPPNGEPKTSGLPSQTSGAGSAYATLPQLPLSPRLSSKLSGYHTPVEAIEPVIPHHELGGKTPSADYSVDRQMDAVGERNLDVSSVEEISRSKDSNVTPDDDVSGMRSPSAFFKHPTHLVTPSEILMGVSSAEASITTEDRRDRDANIQDVNNDPRDTEVEVKEISEARSTQNGEINDHDETENCTSENREKVFCSQVSNLSTEMARDCYPSTEGTFIPGESKAYGQPIKAGDESGVDSRGGPAKLLKGKKQKAKNSQGPGLSSTSSNVANLADSFNEQSQSLSHPMTDLLPQLLAMQETMNQVMASQKEMQRQLSNAATGPIGKESKRLEVALGRMIEKSSKSNADALWARIQEETVKNEKALRDHAQQIVNATTNFMSKELNAMFEKTIKKELAAIGPALARSVVPVIEKTVSSAITESFQRGIGDKAVNQLDKSVNIKLEATVARQIQAQFQTSGKQALQEGLRSSVESSVIPSFEKACKAMFDQIDSAFQKGIAEHTNAAQQRFDSGHSQLAHTLKESITSASSVAQALSRELAETQRNLLALAAAGANSGGSNSLVTQLSGGPLGALLEKVEAPMDPTTELSRLISERKYEESFTSALQRSDVSIVSWLCSQVDLRGLLAMNPLPLSQGVLLSLLQQLACDISKDTSRKLAWMTDVVAAINPSDQMIAVHARPIFEQVYQILHHHRNAPGSDVSAIRLIMHVINSMLMGCK

- binding: binds
B4: CHARGED MULTIVESICULAR BODY PROTEIN 1A (protein, UniProt Q8LE58 1-203)
chain: MGNTDKLMNQIFELKFTSKSLQRQARKCEKEERSEKLKVKKAIEKGNMDGARIYAENAIRKRSEQMNYLRLSSRLDAVVARLDTQAKMATITKSMTNIVKSLESSLTTGNLQKMSETMDSFEKQFVNMEVQAEFMDNAMAGSTSLSTPEGEVNSLMQQVADDYGLEVSVGLPQPAGHAIPTKTEEKVEEDDLTRRLAELKARG

- binding: binds
B5: Calmodulin-binding transcription activator 5 (protein, UniProt O23463 1-923)
chain: MAGVDSGKLIGSEIHGFHTLQDLDIQTMLDEAYSRWLRPNEIHALLCNHKFFTINVKPVNLPKSGTIVLFDRKMLRNFRKDGHNWKKKKDGKTIKEAHEHLKVGNEERIHVYYAHGEDTPTFVRRCYWLLDKSQEHIVLVHYRETHEVHAAPATPGNSYSSSITDHLSPKIVAEDTSSGVHNTCNTGFEVRSNSLGSRNHEIRLHEINTLDWDELLVPADISNQSHPTEEDMLYFTEQLQTAPRGSVKQGNHLAGYNGSVDIPSFPGLEDPVYQNNNSCGAGEFSSQHSHCGVDPNLQRRDFSATVTDQPGDALLNNGYGSQDSFGRWVNNFISDSPGSVDDPSLEAVYTPGQDSSTPPTVFHSHSDIPEQVFNITDVSPAWAYSTEKTKILVTGFFHDSFQHLGRSNLICICGELRVPAEFLQMGVYRCFLPPQSPGVVNLYLSVDGNKPISQLFSFEHRSVQFIEKAIPQDDQLYKWEEFEFQVRLAHLLFTSSNKISVLTSKISPENLLEAKKLASRTSHLLNSWAYLMKSIQANEVPFDQARDHLFELTLKNRLKEWLLEKVIENRNTKEYDSKGLGVIHLCAVLGYTWSILLFSWANISLDFRDKQGWTALHWAAYYGREKMVAALLSAGARPNLVTDPTKEFLGGCTAADLAQQKGYDGLAAFLAEKCLVAQFKDMQTAGNISGNLETIKAEKSSNPGNANEEEQSLKDTLAAYRTAAEAAARIQGAFREHELKVRSSAVRFASKEEEAKNIIAAMKIQHAFRNFEVRRKIAAAARIQYRFQTWKMRREFLNMRKKAIRIQAAFRGFQVRRQYQKITWSVGVLEKAILRWRLKRKGFRGLQVSQPDEKEGSEAVEDFYKTSQKQAEERLERSVVKVQAMFRSKKAQQDYRRMKLAHEEAQLEYDGMQELDQMATEES

- binding: binds
B6: CALMODULIN-LIKE PROTEIN 10 (protein, UniProt P30187 1-191)
chain: MANKFTRQQISEFREQFSVYDKNGDGHITTEEFGAVMRSLGLNLTQAELQEEINDSDLDGDGTINFTEFLCAMAKDTYSEKDLKKDFRLFDIDKNGFISAAEMRYVRTILRWKQTDEEIDEIIKAADVDGDGQINYREFARLMMAKNQGHDTKYDTTGGTLERDLAAGVAKNIIAAPMTDFIKNLFEALFS

- binding: binds
B7: RAN GTPASE-… PROTEIN 1 (protein, UniProt Q9LE82 1-535)
chain: MDHSAKTTQNRVLSVKMWPPSKSTRLMLVERMTKNITTPSIFSRKYGLLSVEEAEQDAKRIEDLAFATANKHFQNEPDGDGTSAVHVYAKESSKLMLDVIKRGPQEESEVEVSKDGDVFFDISGGSRAFIEEEEARDLLRPLADPRNSYTKIRFSNRSFGSEAAKFAASVLSSIKDQLTEVDLSDFVAGRPEAEALEVMNMFSSALEGSKLRYLNLSDNALGEKGIRAFASLINSQHDLEELYLMNDGISEDAARAVRELLPSTDKIRVLQFHNNMTGDEGATAIAEIVRECPSLEDFRCSSTRIGSEGGVALAEALEHCSHLKKLDLRDNMFGVEGGIALAKTLSVLTHLTEIYMSYLNLEDEGTEALSEALLKSAPSLEVLELAGNDITVKSTGNLAACIASKQSLAKLNLSENELKDEGTILIAKAVEGHDQLVEVDLSTNMIRRAGARALAQTVVKKNTFKLLNINGNFISEEGIDEVNDMFKDCLDKLVPLDDNDPEGEDFEDEDEEEEGEDGNELESKLGSLKIKQGEE

Results are given in words; binding and its absence hold for the method and conditions named. In cells and extracts the contact can be indirect. These calls come from enrichment with a bait or labelling near it, and not all partners need be listed. Where a sequence is shown, tags or fusion partners need not be part of it. One block for each binder: values may come before it.
